# Measurements taken from the supplement of paper PMC8728848.
# This is one part of the list.
# Assays:
# Experiment in all cases: glycan array binding signal (z-score within array); higher = stronger binding
# Settings in all cases: glycan notation: IUPAC condensed, linker removed
# [1] = target: Neu5Ac(a2-3)Gal(b1-4)GlcNAc(b1-6)[Gal(b1-3)]GalNAc
# How it was run: (§1)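 From the Consortium for Functional Glycomics database, 3228 arrays were curated, keeping only those whose protein sequence was available. Binding is given as a within-array Z-score averaged across arrays sharing a protein sequence and across linkers. Negative Z-scores can be read as non-binding.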
# [2] = target: Neu5Ac(a2-3)Gal(b1-4)GlcNAc(b1-6)[Neu5Ac(a2-3)Gal(b1-3)]GalNAc
# How it was run: as §1
# [3] = target: Neu5Ac(a2-3)Gal(b1-4)GlcNAc6S
# How it was run: as §1
# [4] = target: Neu5Ac(a2-3)Gal(b1-4)[Fuc(a1-3)]GlcNAc
# How it was run: as §1
# [5] = target: Neu5Ac(a2-3)Gal(b1-4)[Fuc(a1-3)]GlcNAc(b1-2)Man
# How it was run: as §1
# [6] = target: Neu5Ac(a2-3)Gal(b1-4)[Fuc(a1-3)]GlcNAc(b1-3)Gal
# How it was run: as §1
# [7] = target: Neu5Ac(a2-3)Gal(b1-4)[Fuc(a1-3)]GlcNAc(b1-3)Gal(b1-4)GlcNAc
# How it was run: as §1
# [8] = target: Neu5Ac(a2-3)Gal(b1-4)[Fuc(a1-3)]GlcNAc(b1-3)Gal(b1-4)[Fuc(a1-3)]GlcNAc(b1-3)Gal(b1-4)[Fuc(a1-3)]GlcNAc
# How it was run: as §1
# [9] = target: Neu5Ac(a2-3)Gal(b1-4)[Fuc(a1-3)]GlcNAc(b1-3)GalNAc
# How it was run: as §1
# [10] = target: Neu5Ac(a2-3)Gal(b1-4)[Fuc(a1-3)]GlcNAc(b1-6)[Gal(b1-3)]GalNAc
# How it was run: as §1
# [11] = target: Neu5Ac(a2-3)Gal(b1-4)[Fuc(a1-3)]GlcNAc(b1-6)[Neu5Ac(a2-3)Gal(b1-3)]GalNAc
# How it was run: as §1
# [12] = target: Neu5Ac(a2-3)Gal(b1-4)[Fuc(a1-3)]GlcNAc6S
# How it was run: as §1
# [13] = target: Neu5Ac(a2-3)Gal6S(b1-4)GlcNAc
# How it was run: as §1
# [14] = target: Neu5Ac(a2-3)Gal6S(b1-4)[Fuc(a1-3)]GlcNAc
# How it was run: as §1
# Neu5Ac(a2-3)GalNAc = target: Neu5Ac(a2-3)GalNAc
# How it was run: as §1
# [15] = target: Neu5Ac(a2-3)GalNAc(b1-4)GlcNAc
# How it was run: as §1
# [16] = target: Neu5Ac(a2-3)[GalNAc(b1-4)]Gal(b1-4)Glc
# How it was run: as §1
# [17] = target: Neu5Ac(a2-3)[GalNAc(b1-4)]Gal(b1-4)GlcNAc
# How it was run: as §1
# [18] = target: Neu5Ac(a2-3)[GalNAc(b1-4)]Gal(b1-4)GlcNAc(b1-3)GalNAc
# How it was run: as §1
# [19] = target: Neu5Ac(a2-3)[Neu5Ac(a2-6)]GalNAc
# How it was run: as §1
# Neu5Ac(a2-6)Gal = target: Neu5Ac(a2-6)Gal
# How it was run: as §1
# [20] = target: Neu5Ac(a2-6)Gal(b1-3)GlcNAc(b1-3)[Gal(b1-4)GlcNAc(b1-6)]Gal(b1-4)Glc
# How it was run: as §1
# Neu5Ac(a2-6)Gal(b1-4)Glc = target: Neu5Ac(a2-6)Gal(b1-4)Glc
# How it was run: as §1
# [21] = target: Neu5Ac(a2-6)Gal(b1-4)GlcNAc
# How it was run: as §1
# [22] = target: Neu5Ac(a2-6)Gal(b1-4)GlcNAc(b1-2)Man
# How it was run: as §1
# [23] = target: Neu5Ac(a2-6)Gal(b1-4)GlcNAc(b1-2)Man(a1-3)Man(b1-4)GlcNAc(b1-4)GlcNAc
# How it was run: as §1
# [24] = target: Neu5Ac(a2-6)Gal(b1-4)GlcNAc(b1-2)Man(a1-3)[Gal(b1-4)GlcNAc(b1-2)Man(a1-6)]Man(b1-4)GlcNAc(b1-4)GlcNAc
# How it was run: as §1
# [25] = target: Neu5Ac(a2-6)Gal(b1-4)GlcNAc(b1-2)Man(a1-3)[GlcNAc(b1-2)Man(a1-6)]Man(b1-4)GlcNAc(b1-4)GlcNAc
# How it was run: as §1
# [26] = target: Neu5Ac(a2-6)Gal(b1-4)GlcNAc(b1-2)Man(a1-3)[GlcNAc(b1-4)][Neu5Ac(a2-6)Gal(b1-4)GlcNAc(b1-2)Man(a1-6)]Man(b1-4)GlcNAc(b1-4)GlcNAc
# How it was run: as §1
# [27] = target: Neu5Ac(a2-6)Gal(b1-4)GlcNAc(b1-2)Man(a1-3)[Man(a1-6)]Man(b1-4)GlcNAc(b1-4)GlcNAc
# How it was run: as §1
# [28] = target: Neu5Ac(a2-6)Gal(b1-4)GlcNAc(b1-2)Man(a1-3)[Neu5Ac(a2-3)Gal(b1-4)GlcNAc(b1-2)Man(a1-6)]Man(b1-4)GlcNAc(b1-4)GlcNAc
# How it was run: as §1
# [29] = target: Neu5Ac(a2-6)Gal(b1-4)GlcNAc(b1-2)Man(a1-3)[Neu5Ac(a2-6)Gal(b1-4)GlcNAc(b1-2)Man(a1-6)]Man(b1-4)GlcNAc(b1-4)GlcNAc
# How it was run: as §1
# [30] = target: Neu5Ac(a2-6)Gal(b1-4)GlcNAc(b1-2)Man(a1-3)[Neu5Ac(a2-6)Gal(b1-4)GlcNAc(b1-2)Man(a1-6)]Man(b1-4)GlcNAc(b1-4)[Fuc(a1-6)]GlcNAc
# How it was run: as §1
# [31] = target: Neu5Ac(a2-6)Gal(b1-4)GlcNAc(b1-2)Man(a1-6)Man(b1-4)GlcNAc(b1-4)GlcNAc
# How it was run: as §1
# [32] = target: Neu5Ac(a2-6)Gal(b1-4)GlcNAc(b1-2)Man(a1-6)[Gal(b1-4)GlcNAc(b1-2)Man(a1-3)]Man(b1-4)GlcNAc(b1-4)GlcNAc
# How it was run: as §1
# [33] = target: Neu5Ac(a2-6)Gal(b1-4)GlcNAc(b1-2)Man(a1-6)[GlcNAc(b1-2)Man(a1-3)]Man(b1-4)GlcNAc(b1-4)GlcNAc
# How it was run: as §1
# [34] = target: Neu5Ac(a2-6)Gal(b1-4)GlcNAc(b1-2)Man(a1-6)[Man(a1-3)]Man(b1-4)GlcNAc(b1-4)GlcNAc
# How it was run: as §1
# [35] = target: Neu5Ac(a2-6)Gal(b1-4)GlcNAc(b1-2)[Neu5Ac(a2-6)Gal(b1-4)GlcNAc(b1-4)]Man(a1-3)[GlcNAc(b1-4)][Neu5Ac(a2-6)Gal(b1-4)GlcNAc(b1-2)[Neu5Ac(a2-6)Gal(b1-4)GlcNAc(b1-6)]Man(a1-6)]Man(b1-4)GlcNAc(b1-4)GlcNAc
# How it was run: as §1
# [36] = target: Neu5Ac(a2-6)Gal(b1-4)GlcNAc(b1-2)[Neu5Ac(a2-6)Gal(b1-4)GlcNAc(b1-4)]Man(a1-3)[GlcNAc(b1-4)][Neu5Ac(a2-6)Gal(b1-4)GlcNAc(b1-4)Man(a1-6)]Man(b1-4)GlcNAc(b1-4)GlcNAc
# How it was run: as §1
# [37] = target: Neu5Ac(a2-6)Gal(b1-4)GlcNAc(b1-2)[Neu5Ac(a2-6)Gal(b1-4)GlcNAc(b1-6)]Man(a1-6)[Neu5Ac(a2-6)Gal(b1-4)GlcNAc(b1-2)Man(a1-3)][GlcNAc(b1-4)]Man(b1-4)GlcNAc(b1-4)GlcNAc
# How it was run: as §1
# [38] = target: Neu5Ac(a2-6)Gal(b1-4)GlcNAc(b1-3)Gal(b1-3)GlcNAc
# How it was run: as §1
# [39] = target: Neu5Ac(a2-6)Gal(b1-4)GlcNAc(b1-3)Gal(b1-4)GlcNAc
# How it was run: as §1
# [40] = target: Neu5Ac(a2-6)Gal(b1-4)GlcNAc(b1-3)Gal(b1-4)GlcNAc(b1-2)Man(a1-3)[Neu5Ac(a2-6)Gal(b1-4)GlcNAc(b1-3)Gal(b1-4)GlcNAc(b1-2)Man(a1-6)]GalNAc
# How it was run: as §1
# [41] = target: Neu5Ac(a2-6)Gal(b1-4)GlcNAc(b1-3)Gal(b1-4)GlcNAc(b1-3)Gal(b1-4)GlcNAc
# How it was run: as §1
# [42] = target: Neu5Ac(a2-6)Gal(b1-4)GlcNAc(b1-3)Gal(b1-4)GlcNAc(b1-3)Gal(b1-4)GlcNAc(b1-2)Man(a1-3)[Neu5Ac(a2-6)Gal(b1-4)GlcNAc(b1-3)Gal(b1-4)GlcNAc(b1-3)Gal(b1-4)GlcNAc(b1-2)Man(a1-6)]GalNAc
# How it was run: as §1
binder,measurement,setting,value
"GroEL (Clostridium difficile), Q18CT5 (protein) MAKEIKFSEETRRALEAGVNKLADTVKVTLGPKGRNVILDKKFGSPLITNDGVTIAKEIELEDRFENMGAQLVKEVATKTNDVAGDGTTTATVLAQAIIREGLKNVTAGANPILLRKGIQKAVTVAVEELKNQSRIVETQEAISQVASISAGDEEVGKLIAEAMEIVGKDGVITVEESQTMNTELDAVEGMQFDRGFVSAYMVTDVDKMEAVLNDPYILITDKKISNIQELLPVLEQIVQQGKKLLIIAEDVEGEALSTLVVNKLRGTFDVVAVKAPGFGDRRKEMLQDIAILTGAQVISEELGYDLKEADLSMLGRASSVKVTKESTTIVDGSGDKKAIEDRVTQIKHQVEQTTSDFDREKLMERLAKLAGGVAVVKVGAATEVELKERKLRIEDALNATRAAVEEGIVAGGGTAFVSVIPAIGTLIESLEGEVKLGAQIVKKALEEPLRQIAINAGLEGAVIVQNVVNSEAETGFDALNEKYVNMIEAGIVDPTKVSRSALQNAASIASTFLTTEAAVADLPEKEDAGMPGMGGGMPGMM",glycan array binding signal (z-score),[1],0.494
same,glycan array binding signal (z-score),[2],-1.35
same,glycan array binding signal (z-score),[3],0.922
same,glycan array binding signal (z-score),[4],-0.312
same,glycan array binding signal (z-score),[5],-0.579
same,glycan array binding signal (z-score),[6],-1.32
same,glycan array binding signal (z-score),[7],-0.986
same,glycan array binding signal (z-score),[8],-0.29
same,glycan array binding signal (z-score),[9],1.04
same,glycan array binding signal (z-score),[10],0.237
same,glycan array binding signal (z-score),[11],-0.05
same,glycan array binding signal (z-score),[12],-1.73
same,glycan array binding signal (z-score),[13],-0.105
same,glycan array binding signal (z-score),[14],-0.686
same,glycan array binding signal (z-score),Neu5Ac(a2-3)GalNAc,-0.654
same,glycan array binding signal (z-score),[15],-0.142
same,glycan array binding signal (z-score),[16],0.368
same,glycan array binding signal (z-score),[17],0.582
same,glycan array binding signal (z-score),[18],-1.15
same,glycan array binding signal (z-score),[19],-1.16
same,glycan array binding signal (z-score),Neu5Ac(a2-6)Gal,0.316
same,glycan array binding signal (z-score),[20],-1.09
same,glycan array binding signal (z-score),Neu5Ac(a2-6)Gal(b1-4)Glc,0.455
same,glycan array binding signal (z-score),[21],-0.303
same,glycan array binding signal (z-score),[22],-1.07
same,glycan array binding signal (z-score),[23],0.505
same,glycan array binding signal (z-score),[24],-0.433
same,glycan array binding signal (z-score),[25],0.014
same,glycan array binding signal (z-score),[26],-1.12
same,glycan array binding signal (z-score),[27],0.247
same,glycan array binding signal (z-score),[28],-0.416
same,glycan array binding signal (z-score),[29],0.26
same,glycan array binding signal (z-score),[30],0.913
same,glycan array binding signal (z-score),[31],-0.426
same,glycan array binding signal (z-score),[32],-1.45
same,glycan array binding signal (z-score),[33],-0.085
same,glycan array binding signal (z-score),[34],0.853
same,glycan array binding signal (z-score),[35],-0.602
same,glycan array binding signal (z-score),[36],-1.17
same,glycan array binding signal (z-score),[37],-0.633
same,glycan array binding signal (z-score),[38],2.1
same,glycan array binding signal (z-score),[39],-0.389
same,glycan array binding signal (z-score),[40],0.016
same,glycan array binding signal (z-score),[41],-0.99
same,glycan array binding signal (z-score),[42],-0.195
